Consider seven compounds from the odorant receptor screen of Mainland et al. (2015).

Test systems include OR10C1 clone 1065; OR10G3 S73G clone 1272; OR10G6 clone 1108; OR10G7 clone 1589; OR10G8 clone 1396; OR10H1 clone 1291; OR10H2 L40Q clone 1461; OR10H3 clone 1525; OR10J1 clone 1711; OR10J3 clone 1458; OR10J5 R233W clone 1410; OR10J5 clone 1037; OR10K1 clone 1024; OR10K2 clone 1040; OR10P1 clone 1254; OR10Q1 clone 1202; OR10H5 A224D clone 1294.
Assay in all cases: odorant receptor activation (CRE luciferase / Renilla) (fold of no-odor wells); higher = more activation
What all share (conditions): 100 µM

The test system of experiment [1] is OR10G4 A9V/M134V/V195E/R235G/K295Q clone 1119.
The test system of experiment [2] is OR10G9 A90T/M134V clone 1192.
For experiment [3], the system named is OR10R2 A191T/E216G/L239F clone 1304.

Where “and” joins values, the source holds several entries; their conditions need not be identical. Equal entries are not always repeated. This is one part of the list. Each value is one well over the wells without odorant, computed here; the data are noisy.

Consider `C=C(C)C1CC=CCC1` (stereo unspecified) [r-limonene], for which the odorant receptor activation was 0.923 and 1.04 with OR10C1 clone 1065; 0.814 and 0.448 with OR10G3 S73G clone 1272; 1.08 in [1]; 1.06 and 2.51 in the experiment with OR10G6 clone 1108; 1.26 with OR10G7 clone 1589; 1.28 and 0.85 with OR10G8 clone 1396. Moreover, the odorant receptor activation in [2] is 0.901 and 0.46; in the experiment with OR10H1 clone 1291 it was 1.1 and 0.379; in the experiment with OR10H2 L40Q clone 1461, 0.877 and 0.706 and 0.926; with OR10H3 clone 1525, 1 and 1.01 and 0.726; in the experiment with OR10J1 clone 1711, 0.772; in the experiment with OR10J3 clone 1458, 0.997. In addition, the odorant receptor activation in the experiment on OR10J5 R233W clone 1410 was 1.52 and 0.893; with OR10J5 clone 1037 it was 1.17; in the experiment with OR10K1 clone 1024, 0.804 and 1.17; in the experiment with OR10K2 clone 1040, 1.12 and 2.48; in the experiment on OR10P1 clone 1254 it was 1.05 and 0.431; with OR10Q1 clone 1202, 0.83 and 0.358. In experiment [3], the odorant receptor activation is 0.871 and 0.384.

Consider `CC12C=CCC1C1CCC3=CC(=O)CCC3(C)C1CC2` (stereo unspecified) [androstadienone], for which the odorant receptor activation in the experiment on OR10C1 clone 1065 was 2.83; with OR10G3 S73G clone 1272, 1.23 and 0.947; in the experiment on OR10G6 clone 1108, 1.43; with OR10G8 clone 1396, 0.723; in experiment [2] it was 0.759; with OR10H1 clone 1291, 0.848 and 0.988. Further, the odorant receptor activation in the experiment with OR10H2 L40Q clone 1461 is 0.729 and 1.34; with OR10H3 clone 1525, 0.904 and 1.47; in the experiment with OR10H5 A224D clone 1294 it was 1.68 and 0.946; in the experiment on OR10J5 R233W clone 1410 it was 1.06; with OR10J5 clone 1037 it was 1.27; with OR10K1 clone 1024 it was 1.27. For the same compound, the odorant receptor activation in the experiment on OR10K2 clone 1040 was 1.6; in the experiment on OR10P1 clone 1254, 1.47 and 2.23; with OR10Q1 clone 1202, 1.18; in experiment [3], 0.982 and 0.792.

Turning to `CC/C=C\CCO` [cis-3-hexen-1-ol], the odorant receptor activation was found to be 0.961 in the experiment with OR10C1 clone 1065; 1.05 in the experiment on OR10G3 S73G clone 1272; 1.17 in [1]; 0.883 with OR10G6 clone 1108; 1.61 in the experiment with OR10G7 clone 1589; 0.344 with OR10G8 clone 1396. Also, the odorant receptor activation in experiment [2] amounted to 1.05; in the experiment on OR10H1 clone 1291, 1.2; with OR10H2 L40Q clone 1461, 1.23; in the experiment on OR10H3 clone 1525 it was 0.909; in the experiment with OR10H5 A224D clone 1294 it was 0.996; with OR10J1 clone 1711, 0.972. In addition, the odorant receptor activation with OR10J3 clone 1458 amounted to 1.25; in the experiment with OR10J5 R233W clone 1410, 0.161; in the experiment on OR10J5 clone 1037, 0.925; in the experiment on OR10K1 clone 1024 it was 1.72; in the experiment with OR10K2 clone 1040, 0.943; with OR10P1 clone 1254, 0.871. For the same compound, the odorant receptor activation in the experiment on OR10Q1 clone 1202 was 0.955; in [3], 1.04.

Take `c1ccc(Oc2ccccc2)cc1` [diphenyl ether]: the odorant receptor activation with OR10C1 clone 1065 was 1.08; in the experiment with OR10G3 S73G clone 1272 it was 1.02; in experiment [1] it was 0.763; with OR10G6 clone 1108, 1.08; in the experiment with OR10G7 clone 1589, 0.859; in the experiment with OR10G8 clone 1396, 1.04. Also, the odorant receptor activation was determined as 0.984 in experiment [2]; 1.16 in the experiment on OR10H1 clone 1291; 1.22 in the experiment on OR10H2 L40Q clone 1461; 1.11 in the experiment with OR10H3 clone 1525; 0.951 in the experiment on OR10H5 A224D clone 1294; 0.614 in the experiment on OR10J1 clone 1711. The odorant receptor activation in the experiment with OR10J3 clone 1458 was found to be 0.899; with OR10J5 R233W clone 1410, 0.946; with OR10J5 clone 1037, 0.892; in the experiment on OR10K1 clone 1024 it was 1.04; in the experiment with OR10K2 clone 1040, 1.1; with OR10P1 clone 1254 it was 0.997. Also, the odorant receptor activation with OR10Q1 clone 1202 was 0.802; in experiment [3], 1.01.

As to `CC12CCC(C1)C(C)(C)C2=O` (stereo unspecified) [fenchone], the odorant receptor activation with OR10C1 clone 1065 was 1.13; in the experiment with OR10G3 S73G clone 1272 it was 0.984; in experiment [1] it was 1.01; in the experiment on OR10G6 clone 1108, 1.16; in the experiment with OR10G7 clone 1589 it was 3.2; in the experiment on OR10G8 clone 1396, 1.08. Further, the odorant receptor activation in experiment [2] is 0.764; in the experiment with OR10H1 clone 1291, 0.849; in the experiment on OR10H2 L40Q clone 1461, 1.23; in the experiment with OR10H3 clone 1525 it was 1.06; in the experiment with OR10H5 A224D clone 1294, 0.84; with OR10J1 clone 1711 it was 0.589. The odorant receptor activation worked out at 0.798 with OR10J3 clone 1458; 0.923 with OR10J5 R233W clone 1410; 0.902 with OR10J5 clone 1037; 1.19 with OR10K1 clone 1024; 1.1 with OR10K2 clone 1040; 1.04 in the experiment on OR10P1 clone 1254. The odorant receptor activation in the experiment with OR10Q1 clone 1202 is 0.928; in experiment [3], 0.881.

For the compound `COC(=O)c1ccccc1` [methyl benzoate], the odorant receptor activation was 0.889 in the experiment on OR10C1 clone 1065; 1.1 in the experiment on OR10G3 S73G clone 1272; 1.24 with OR10G6 clone 1108; 0.83 with OR10G8 clone 1396; 0.826 in experiment [2]; 0.851 with OR10H1 clone 1291. Further, the odorant receptor activation in the experiment with OR10H2 L40Q clone 1461 is 0.852 and 1.07; in the experiment with OR10H3 clone 1525, 1.35 and 0.893; in the experiment on OR10H5 A224D clone 1294, 0.533; with OR10J5 R233W clone 1410, 0.703; with OR10J5 clone 1037, 1.08; in the experiment with OR10K1 clone 1024, 1.81. Besides, the odorant receptor activation in the experiment on OR10K2 clone 1040 is 2.34; in the experiment on OR10P1 clone 1254, 0.594; in the experiment with OR10Q1 clone 1202 it was 0.759; in [3], 0.716.

As to `COc1ccccc1O` [guaiacol], the odorant receptor activation was 9.03 in the experiment on OR10C1 clone 1065; 1.27 and 1.15 with OR10G3 S73G clone 1272; 1.93 in experiment [1]; 2.03 in the experiment with OR10G6 clone 1108; 8.59 with OR10G7 clone 1589; 0.67 in the experiment on OR10G8 clone 1396. The odorant receptor activation in [2] was 1.67; with OR10H1 clone 1291 it was 1.04 and 0.884; in the experiment on OR10H2 L40Q clone 1461 it was 0.702 and 1.12; with OR10H3 clone 1525, 0.687 and 1.14; in the experiment with OR10H5 A224D clone 1294, 0.877 and 1.14; in the experiment on OR10J1 clone 1711, 0.797. For the same compound, the odorant receptor activation in the experiment with OR10J3 clone 1458 is 0.844; in the experiment with OR10J5 R233W clone 1410, 0.77; with OR10J5 clone 1037 it was 1.63; in the experiment with OR10K1 clone 1024, 1.24; in the experiment with OR10K2 clone 1040, 0.965; with OR10P1 clone 1254 it was 1.15 and 2.5. For the same compound, the odorant receptor activation with OR10Q1 clone 1202 is 1.05; in experiment [3], 0.796 and 0.784.
